Assay results as given in PubChem BioAssay AID540256 (National Center for Advancing Translational Sciences (NCATS), 2011).
Among all 300,000 compounds or so, about 3,700 (1.2%) were called active. Inconclusive results, whose numbers are uncertain, are shown with a selection of clear calls. Calls come from the whole dose curve; tested in HEK293 cells. A potency beside an inconclusive call is a rough fit, not a confirmed value.

test: qHTS for Inhibitors of binding or entry into cells for Lassa Virus; details: Lassa virus pseudotype entry inhibition, cell reporter; series mostly up to 37.9 µM; note: nearly all actives have a fitted effect of over 50% in size
Potency is the fitted concentration of half-maximal effect.

| SMILES | Potency |
| --- | --- |
| O=C(Nc1ccc2nc(SCC(=O)N3CCOCC3)sc2c1)c1ccc(Cl)cc1 | inconclusive: 6.31 µM [activator, single point] |
| CCN(Cc1ccccc1)C(=O)C(CC(C)C)NS(=O)(=O)c1ccc2c(c1)CCN2C(C)=O (stereo unspecified) | inconclusive: 10 µM [inhibitor, partial curve, poor fit] |
| CCc1ccc2occ(CC(=O)Nc3sc4c(c3C(=O)OC)CCC4)c2c1 | inconclusive: 35.5 µM [inhibitor, single point] |
| COc1ccc(N2CC(O)(c3ccc(OC(F)F)cc3)[N+]3=C2CCCC3)cc1 (stereo unspecified) | inactive |
| NC(=O)Cn1cnc2c(nnn2-c2ccc(F)cc2)c1=O | inconclusive: 0.501 µM [inhibitor, full curve, poor fit] |
| CSC1=NC2(CCN(C(=O)NC3CCCCC3)CC2)N=C1c1ccc(C(C)(C)C)cc1 | inactive |
| COc1cccc(N2C(=O)CSC23C(=O)N(CC(=O)NCc2ccc(C)cc2)c2ccccc23)c1 (stereo unspecified) | inactive |
| O=C(C1CCN(c2nc3ccccc3[nH]2)CC1)N1CCN(c2cccc(Cl)c2)CC1 | inconclusive: 22.4 µM [inhibitor, single point] |
| Cc1ccc(SCc2cc(=O)n3[nH]c(C)nc3n2)cc1 | inactive |
| Cc1cccc(C(=O)Nc2ccccc2C(=O)OCc2cc(=O)n3nc(C4CC4)sc3n2)c1 | inactive |
| COc1cc(C(O)P(=O)(OC(C)C)c2ccc(N(C)C)cc2)cc(OC)c1OC (stereo unspecified) | inactive |
| COc1cc(/C=N/Nc2ccc([N+](=O)[O-])cn2)cc(OC)c1O | inconclusive: 35.5 µM [inhibitor, single point] |
| COc1cc2c(-c3ccccc3Cl)nc3c(c(C)nn3-c3ccccc3)c2cc1OC | inactive |
| CCOc1ccc(-c2nc(S(=O)(=O)c3ccccc3)c(NC)o2)cc1 | inactive |
| c1ccc(-c2nnnc3ccccc23)cc1 | inactive |
| CCN1CCN(C(=O)c2ccc(COc3cccc(Cl)c3)o2)CC1 | inconclusive: 1.26 µM [inhibitor, single point] |
| Cc1cc(C)cc(OCCNS(=O)(=O)c2cccs2)c1 | inconclusive: 25.1 µM [inhibitor, single point] |
| O=C(c1ccccc1)N1CCN=C1c1ccccc1 | inactive |
| CCCCn1cc(S(=O)(=O)c2ccc(Cl)cc2)c(=O)c2cc(F)c(N3CCCCC3)cc21 | inactive |
| Oc1ccc(N=Nc2n[nH]c(-c3ccccc3)n2)cc1 | inconclusive: 10 µM [inhibitor, partial curve, poor fit] |
| CCC(C)(C)C1CCC2(CC1)NC(=O)N(CC(=O)N(C)CC(=O)Nc1ccccc1C(F)(F)F)C2=O (stereo unspecified) | inactive |
| CC1CCN(C(=O)c2cc(-c3ccc4c(c3)OCO4)on2)CC1 | inconclusive: 35.5 µM [inhibitor, single point] |
| O=C(COc1cccc(Cl)c1)Nc1nc(-c2ccc(S(=O)(=O)N3CCOCC3)cc2)cs1 | inconclusive: 22.4 µM [inhibitor, single point] |

| SMILES | Potency |
| --- | --- |
| COC(=O)c1c(NC(=S)Nc2ccccc2Cl)sc(C)c1C | inconclusive: 29.1 µM [inhibitor, single point] |
| COc1ccc(C(=O)CC(Nc2ccc([N+](=O)[O-])cc2)c2ccc(Cl)cc2)cc1 (stereo unspecified) | inconclusive: 2.06 µM [inhibitor, partial curve, poor fit] |
| O=C(CCc1nc2sc3c(c2c(=O)[nH]1)CCCC3)Nc1cccc(Cl)c1 | inconclusive: 8.91 µM [inhibitor, partial curve, poor fit] |
| COc1ccccc1NS(=O)(=O)c1cccc(C(=O)NN=C2CCCC2)c1 | inconclusive: 35.5 µM [activator, single point] |
| CCOc1ccc(C2CC(c3c(O)c4ccccc4oc3=O)=NN2c2ccccc2)cc1OC (stereo unspecified) | inconclusive: 2.82 µM [inhibitor, partial curve, poor fit] |
| Cc1sc2nc3c4ccccc4c(NCc4ccco4)nn3c(=O)c2c1C | inconclusive: 35.5 µM [activator, partial curve, poor fit] |
| CC/C(=N\NC(=O)c1c[nH]c2ccccc12)c1cccs1 | inconclusive: 29.1 µM [inhibitor, single point] |
| Cc1ccc(-c2cc(=O)c3cc(C)ccc3[nH]2)cc1 | active: 14.6 µM |
| COc1ccc(CCNC(C(=O)Nc2cc(C)cc(C)c2)c2ccccc2)cc1 (stereo unspecified) | inconclusive: 0.282 µM [inhibitor, partial curve, poor fit] |
| CCOC(=O)c1ccc(NC(=O)CC2C(=O)N(c3ccccc3)C(=O)N2C2CCCCC2)cc1 (stereo unspecified) | inactive |
| CCOc1ccc(N2C(=O)CC(N3CCN(c4ccccc4F)CC3)C2=O)cc1 (stereo unspecified) | inactive |
| COc1cc(Cl)ccc1OCc1cc(C(=O)NC2CCc3ccccc32)no1 (stereo unspecified) | inactive |
| Cn1cc(CCNC(=O)CCc2nnc(CCCCc3ccccc3)o2)cn1 | inactive |
| COC(=O)c1ccccc1Nc1ccccc1 | inactive |
| CC1(C)CC(=O)c2cc(OCC(=O)NCCCN3CCN(c4ccccc4F)CC3)ccc2O1 | inconclusive: 0.517 µM [activator, full curve, poor fit] |
| CC(=O)c1ccc(NC(=O)C(C)OC(=O)c2cccc(-n3cnnn3)c2)cc1 (stereo unspecified) | inactive |
| CCCN(CC(=O)Nc1ccccc1C)C(=O)c1ccc(COc2ccccc2)cc1 | inactive |
| COc1nc(-c2ccc(Cl)cc2)nnc1C | inactive |
| Cc1cc(N/N=C/c2cccc(Cl)c2)nc(NCc2ccccc2)n1 | inconclusive: 35.5 µM [inhibitor, single point] |
| CCOC(=O)c1ccc2c(c1)N(CC(=O)Nc1ccc(CC)cc1)C(=O)c1ccccc1S2 | inactive |
| CN(C)CCCN1c2ccccc2Sc2ccccc21 | inconclusive: 23.1 µM [inhibitor, single point] |
| Oc1ccc2c3c1O[C@H]1c4[nH]c5c(c4C[C@@]4(O)[C@@H](C2)N(CC2CC2)CC[C@]314)C[C@@]1(O)[C@H]2Cc3ccc(O)c4c3[C@@]1(CCN2CC1CC1)[C@H]5O4 | inconclusive: 0.073 µM [inhibitor, full curve, poor fit] |
| N#CCc1nc(CSc2nc3ccccc3s2)cs1 | inactive |

Grouped by structure: the compounds so far with an aryl thioether with sulfur outside any ring.

| SMILES | Potency |
| --- | --- |
| O=C(Nc1ccc2nc(SCC(=O)N3CCOCC3)sc2c1)c1ccc(Cl)cc1 | inconclusive: 6.31 µM [activator, single point] |
| Cc1ccc(SCc2cc(=O)n3[nH]c(C)nc3n2)cc1 | inactive |
| N#CCc1nc(CSc2nc3ccccc3s2)cs1 | inactive |
